# Data reported in PubChem BioAssay AID504834 (National Center for Advancing Translational Sciences (NCATS), 2011).
# The campaign covered roughly 320,000 compounds. About 22,000 (6.9%) were called active. The shares of active, inactive and inconclusive entries below differ from those in the screen. Calls come from the whole dose curve; as a rule, active = well fitted inhibition curve with a large enough effect; inconclusive = small, poorly fitted or top-dose-only effect, or another doubt; inactive = no such curve, though single readings can be large or run the other way. Potencies of inconclusive entries are doubtful fits and often do not repeat.
# Experiment: Primary qHTS for delayed death inhibitors of the malarial parasite plastid, 96 hour incubation
# Details: P. falciparum luciferase reporter growth; series mostly up to 28.7 µM
# How it was run: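 P. falciparum expressing integrated firefly luciferase grown in erythrocytes (2% hematocrit, 0.05% parasitemia final) with compounds for 96 hours at 37 C, 5% CO2. Growth inhibition read as loss of luminescence after adding luciferase detection reagent.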
# Potency is the fitted concentration of half-maximal effect.
row,SMILES,Potency
1,CC1Oc2ccccc2N(Cc2ccccc2Cl)C1=O (stereo not drawn),active: 11.7 µM
2,COc1ccc(C(C(=O)NC2CCCCC2)N(C(=O)CCl)c2ccc(OC)cc2)cc1 (stereo not drawn),active: 9.28 µM
3,Cc1ccc(-c2nn(-c3ccc(F)cc3)cc2C(=O)NCC(c2cccs2)N2CCOCC2)cc1 (stereo not drawn),"inconclusive: 4.15 µM [inhibitor, full curve]"
4,COc1ccc(-n2nc3c(c2NC(=O)COc2ccccc2)CS(=O)(=O)C3)cc1,"inconclusive: 0.415 µM [inhibitor, full curve]"
5,CC(=O)Nc1ccc(C(=O)N/N=C/c2ccncc2)cc1,"inconclusive: 0.738 µM [inhibitor, full curve, poor fit]"
6,CCC(=O)N1CCN(c2ccc(Cl)cc2NC(=O)c2cccc([N+](=O)[O-])c2)CC1,"inconclusive: 10.4 µM [inhibitor, single point]"
7,COc1ccc(CCNC(=O)c2cc(Cl)nc3ccccc23)cc1,"inconclusive: 18.5 µM [inhibitor, single point]"
8,COc1ccc(/C=C(\NC(=O)c2ccccc2)C(=O)NCCN2CCOCC2)cc1,inactive
9,CCc1nc(SCc2cccnc2)[nH]c(=O)c1C,inactive
10,CCOc1cc(-c2sc(Nc3ccccc3)n[n+]2C)ccc1OC,inactive
11,C=CCN(C(=O)c1cccc(C(F)(F)F)c1)C1(C(=O)Nc2ccccc2)CCN(C(C)C)CC1,active: 7.38 µM
12,Cc1cc(Cn2nc(-c3ccccc3C)cc2C(=O)O)on1,inactive
13,COCC(C)NC(C(=O)Nc1ccc(C)c(Cl)c1)c1ccccc1 (stereo not drawn),inactive
14,FC(F)(F)c1cccc(Cc2noc(CN3CCCC3)n2)c1,inactive
15,CCN(CC)CCNS(=O)(=O)c1ccc2c3c(cccc13)C(=O)N2,inactive
16,O=C(c1ccc2nc(N3CCCCC3)sc2c1)N1CCN(Cc2ccc3c(c2)OCO3)CC1,inactive
17,COCCCNC(=O)Cn1nc(-c2ccccc2OC)ccc1=O,inactive
18,COc1ccc(-c2cn(-c3ccccc3)c(=S)[nH]2)cc1OC,inactive
19,CC(C)NC(=O)c1nn2c(C(F)(F)F)cc(-c3ccco3)nc2c1Cl,"inconclusive: 10.4 µM [inhibitor, partial curve]"
20,Cc1cccc(C)c1NC(=O)C(=O)NCC1CCCN1S(=O)(=O)c1ccccc1 (stereo not drawn),"inconclusive: 9.28 µM [inhibitor, single point]"
21,Cc1cc(-c2nnc(SCC(=O)Nc3cccc(Cl)c3)n2N)n[nH]1,"inconclusive: 18.5 µM [inhibitor, single point]"
22,Cc1ccc(S(=O)(=O)N2CCN(C(=O)N(c3ccccc3)c3ccccc3)CC2)cc1,"inconclusive: 14.7 µM [inhibitor, partial curve, poor fit]"
23,CC(C)(C)OC(=O)N1CCC(NC(=O)c2nc[nH]c2C(=O)NC2CCN(C(=O)OC(C)(C)C)CC2)CC1,active: 3.7 µM
24,CCn1nc(C)c(CNC(=O)Nc2ccc3c(c2)OCO3)c1C,"inconclusive: 0.0029 µM [inhibitor, full curve, poor fit]"

# Three entries from above, sorted by formula weight, ascending.
row,SMILES,Potency
5,CC(=O)Nc1ccc(C(=O)N/N=C/c2ccncc2)cc1,"inconclusive: 0.738 µM [inhibitor, full curve, poor fit]"
19,CC(C)NC(=O)c1nn2c(C(F)(F)F)cc(-c3ccco3)nc2c1Cl,"inconclusive: 10.4 µM [inhibitor, partial curve]"
2,COc1ccc(C(C(=O)NC2CCCCC2)N(C(=O)CCl)c2ccc(OC)cc2)cc1 (stereo not drawn),active: 9.28 µM

# More records follow:

row,SMILES,Potency
1,O=C(NC1CCCCC1)C1CCC(CNS(=O)(=O)c2cccc3nsnc23)CC1 (stereo not drawn),"inconclusive: 18.5 µM [inhibitor, partial curve, poor fit]"
2,Nc1nnc(COc2ccc(Br)cc2Br)s1,inactive
3,C/C(=N\Nc1cc(C(F)(F)F)ccc1Cl)c1ccccc1O,inactive
4,CCOc1ccc2c(C)c(C)c(=O)oc2c1OCC,"inconclusive: 4.15 µM [inhibitor, partial curve, poor fit]"
5,CCOc1ccc(NC(=O)CN(C)C(=O)COc2cccc(CC)c2)cc1OCC,"inconclusive: 9.28 µM [inhibitor, single point]"
6,C#Cc1ccc([C@@H]2C=C(C(=O)NCc3ccccc3)O[C@H](OCc3ccc(CO)cc3)C2)cc1,"inconclusive: 3.7 µM [inhibitor, single point]"
7,Cc1cc(C)c(NC(=O)C2CCCN(S(=O)(=O)c3c(C)noc3/C=C/N(C)C)C2)c(C)c1 (stereo not drawn),active: 13.1 µM
8,CC(C)(C)NC[C@H](O)CSc1nc(-c2ccc(C(N)=O)s2)cs1,active: 10.7 µM
9,CCCCN(CC)Cc1ccc(CNC(=O)Nc2ccc(OCC)cc2)o1,"inconclusive: 0.37 µM [inhibitor, full curve, poor fit]"
10,Cc1cc(C)c(C)c(OCCCCN(C)Cc2ccccc2)c1,active: 13.1 µM
11,Fc1ccccc1N1CC(c2ccccc2)C(c2cccs2)=N1 (stereo not drawn),active: 11.7 µM
12,CCc1nnc(NC2=NCCC2)s1,"inconclusive: 10.4 µM [inhibitor, single point]"
13,COc1ccc2[nH]cc(CCN=C3SCC(=O)N3C)c2c1,active: 11.7 µM
14,Oc1ccc(/C=N/Nc2ncc(Br)cn2)c(O)c1,"inconclusive: 18.5 µM [inhibitor, single point]"
15,CC(C)CN1C=C2C(=O)C(C)(OC(=O)C3CCCC3)C(=O)C=C2C=C1c1ccsc1 (stereo not drawn),active: 10.4 µM
16,c1ccc(Nc2cccc(Nc3ccccc3)n2)cc1,inactive
17,O=C(O)CCCCCNC(=O)OCC1c2ccccc2-c2ccccc21,"inconclusive: 14.7 µM [inhibitor, partial curve]"
18,CC1(C)Cc2ccccc2C(c2cc3ccccc3oc2=O)=N1,"inconclusive: 11.7 µM [inhibitor, partial curve, poor fit]"
19,CCOC(=O)N1CCc2c(sc3c2c(=O)n(Cc2ccccc2)c(=O)n3Cc2cccc(C)c2)C1,inactive
20,COc1cn(-c2ccccc2)nc1C(=O)Nc1ccc(C)cc1Cl,"inconclusive: 11.7 µM [inhibitor, single point]"
21,CCCNC(=O)c1ccc(N2CCC3(CC2)CC(c2ccc(Cl)cc2)=NO3)c([N+](=O)[O-])c1,"inconclusive: 11.7 µM [inhibitor, single point]"
22,CC1c2[nH]c3ccccc3c2C[C@H]2C(=O)N(CCCN(C)C)CC(=O)N12 (stereo partly drawn),inactive
23,COC(=O)C1=C(C)N(c2ccccc2)/C(=C/c2ccco2)C1=O,"inconclusive: 20.8 µM [inhibitor, partial curve, poor fit]"
24,CCN1CCN(C(=O)CCN2C(=O)COc3ccc(C)cc32)CC1,inactive
